From patent publication US6380168B1, “Method for promoting hair growth” (Nomura Co., Ltd., priority 1992, dated 2002)

Test system: tyrosinase
Test: Tyrosinase inhibition (L-Dopa, dopachrome absorbance at 475 nm, procedure of Manson and Peterson)
Assay type: biochemical, mushroom
Experimental: This experiment was conducted according to the procedure of Manson and Peterson. A 0.5 ml L-Dopa solution (0.03% in pH6.8 PBS) was added to 0.5 ml of a test liquid, and incubated for 5 minutes at 25° C. After which, a 0.5 ml of tyrosinase solution (obtained from a mushroom) was added and the mixture was further incubated for 5 minutes at 25° C. […] Kojic acid was used for a positive control test.

## OCC1O[C@@H](OCC2O[C@@H](Oc3c[nH]c4ccccc34)C(O)C(O)[C@@H]2O)C(O)C(O)[C@@H]1O (stereo partly drawn) [Calanthoside A, 3-O-β-D-glucopyranosyl (1-6)-β-D-glucopyranosylindole]
Concentration 50 μg/ml
  Absorbance (× 1,000) (D1-D2): 454.0 ± 0.0 × 1,000
Concentration 200 μg/ml
  Absorbance (× 1,000) (D1-D2): 252.0 ± 0.0 × 1,000

## O=c1cc(CO)occ1O [Kojic Acid, Kojic acid]
Concentration 5 (μM)
  Absorbance (× 1,000) (D1-D2): 478.0 ± 3.1 × 1,000 and 526.0 ± 2.6 × 1,000 and 562.8 ± 2.0 × 1,000
Concentration 20 (μM)
  Absorbance (× 1,000) (D1-D2): 240.7 ± 3.5 × 1,000 and 276.8 ± 1.9 × 1,000 and 301.5 ± 1.5 × 1,000
Concentration 50 (μM)
  Absorbance (× 1,000) (D1-D2): 122.8 ± 1.7 × 1,000 and 144.3 ± 2.0 × 1,000 and 158.7 ± 1.2 × 1,000

Several values for one entry are separate records, joined by “and”; a condition that tells them apart may be missing. Equal entries are not always repeated.
